Measurements published in patent publication US20210238281A1.
Changes are numbered by the printed parent chain. Results are given in words; binding and its absence hold for the method and conditions named. Some results given as binding are weak or reduced against the parent protein; the word gives no strength.

Protein sequences, listed by entry. Tags and fused reporters are not part of them. Residues count along the entry.
UniProt Q16653, residues 30-154: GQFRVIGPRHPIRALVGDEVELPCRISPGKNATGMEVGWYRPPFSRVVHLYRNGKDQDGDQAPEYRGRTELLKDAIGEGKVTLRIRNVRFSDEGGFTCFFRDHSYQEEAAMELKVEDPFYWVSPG
UniProt Q61885, residues 29-156: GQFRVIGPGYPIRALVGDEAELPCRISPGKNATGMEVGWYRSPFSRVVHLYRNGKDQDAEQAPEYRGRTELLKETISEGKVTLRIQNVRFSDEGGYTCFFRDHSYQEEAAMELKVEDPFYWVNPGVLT

B1: anti-MOG MO3I-33 antibody (scFv, V domains shown)
VH: DQVQLVQSGAEVKPGATVKISCKVSGYTFTDYYMHWVQQAPGKGLEWMGLVDPEDGETIYAEKFQGRVTITADTSTDTAYMELSSLRSEDTAVYYCATSYHGTSGFDYWGQGTLVTVSS
VL: QSVVTQPPSVSGAPGQRVTIACTGSNSDIGAGHDVHWYQQFPRTAPKLIIFGNTNRPSGVPDRFSGSKSGTSASLVITGLQADDEADYHCQSYDNNLSGPIFGGGTKLTVL
B2: anti-MOG MO3I-34 antibody (scFv, V domains shown)
VH: EVQLVQSGAEVKKPGASVKVSCKASGYTFTSYGISWVRQAPGQGLEWMGWISAYNGNTNYAQKLQGRVTMTTDTSTSTAYMELRSLRSDDTAVYYCARNMGCSSTSCFVSWFDPWGQGTLVTVSS
VL: QSVLTQPPSVSAAPGQKVTISCSGSRSNIGSNYVSWYQQLPGTAPKLLIYDNTRRPSGIPDRFYGSKSGTSATLDITGLQTGDEADYHCATWDSSLSALLFGGGTKVTVL
B3: anti-MOG MO4H-03 antibody (scFv, V domains shown)
VH: QVQLVQSGTEVKKPGASVKVSCKVSGYTLTELSMHWVRQAPGKGLEWMGGFDPEDGETIYAQKFQGRVTMTEDTSTDTAYMELSSLRSEDTAVYYCATGATGAFDIWGQGTTVTVSS
VL: DIVMTQTPLSSPVTLGQPASISCRSSQSLVDSDGNTYLNWLQQRPGQPPRLLIYKISNRFSGVPDRFSGSGAGTEFTLKISRVEAEDVGVYYCMQATQFPHTFGQGTKLEIK
B4: anti-MOG MO4H-04 antibody (scFv, V domains shown)
VH: B2 VH with G15V
VL: QSALTQPPSASGSPGQSVTISCTGTHSDVGSFDSVSWYQQHPDKAPKLIIYDVNKRPAGVPHRFSGSKSGNTASLTVSGLQSEDEADYYCNSYAGVDNFVFGTGTKVTVL
B5: anti-MOG MO4H-46 antibody (scFv, V domains shown)
VH: QVQLVQSGAEVKKPGASVKVSCKASGYTFTSYAMHWVRQAPGQRLEWMGWINAGNGNAKYSQKFQGRVTLTRDTSASTAYMKLSSLRSEDTAVYYCARGAPTYRYFDLWGRGTLVTVSS
VL: QSVLTQPPSVSAAPGQKVTISCSGSSSNIGNNYVAWYQQLPGTAPKLLIYDNNKRPSGIPDRFSGSKSGTSATLGITGLQTGDEADYYCGTSDSSLSAVVFGGGTKLTVL

target: recombinant human MOG protein (human) (UniProt Q16653); test: phage-scFv ELISA, compared with phage-scFv-8-18C5 positive control

binding, binds:
B1
B2
B3
B4
B5

target: recombinant murine MOG protein (murine) (UniProt Q61885); test: as above

binding, binds:
B1
B2
B3
B4
B5
